Measured values from doi:10.1101/2023.12.04.570005.
Results are given in words; binding and its absence hold for the method and conditions named. Binding seen in cells or lysates may run through a third protein. Some results given as binding are weak or reduced against the parent protein; the word gives no strength.

By UniProt entry, the sequences of proteins in these tests, tags left out. Where a name states a change or a piece, a line headed by the entry shows the natural chain unless it says otherwise. Chains listed by the source or under a name are the forms on record and can include a tag or linker.
UniProt P04198: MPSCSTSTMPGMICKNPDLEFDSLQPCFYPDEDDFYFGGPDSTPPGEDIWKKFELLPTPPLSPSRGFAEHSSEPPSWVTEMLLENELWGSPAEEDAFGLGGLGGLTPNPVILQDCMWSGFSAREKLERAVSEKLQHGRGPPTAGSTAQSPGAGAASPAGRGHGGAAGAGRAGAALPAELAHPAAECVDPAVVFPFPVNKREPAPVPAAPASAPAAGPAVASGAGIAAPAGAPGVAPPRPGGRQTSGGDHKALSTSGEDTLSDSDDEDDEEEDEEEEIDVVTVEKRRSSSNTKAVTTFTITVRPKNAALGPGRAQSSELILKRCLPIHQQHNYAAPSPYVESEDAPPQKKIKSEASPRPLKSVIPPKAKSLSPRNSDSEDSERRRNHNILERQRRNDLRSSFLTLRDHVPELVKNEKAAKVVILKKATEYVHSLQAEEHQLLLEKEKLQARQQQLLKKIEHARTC
HA-MYCN 2D (P04198, form named): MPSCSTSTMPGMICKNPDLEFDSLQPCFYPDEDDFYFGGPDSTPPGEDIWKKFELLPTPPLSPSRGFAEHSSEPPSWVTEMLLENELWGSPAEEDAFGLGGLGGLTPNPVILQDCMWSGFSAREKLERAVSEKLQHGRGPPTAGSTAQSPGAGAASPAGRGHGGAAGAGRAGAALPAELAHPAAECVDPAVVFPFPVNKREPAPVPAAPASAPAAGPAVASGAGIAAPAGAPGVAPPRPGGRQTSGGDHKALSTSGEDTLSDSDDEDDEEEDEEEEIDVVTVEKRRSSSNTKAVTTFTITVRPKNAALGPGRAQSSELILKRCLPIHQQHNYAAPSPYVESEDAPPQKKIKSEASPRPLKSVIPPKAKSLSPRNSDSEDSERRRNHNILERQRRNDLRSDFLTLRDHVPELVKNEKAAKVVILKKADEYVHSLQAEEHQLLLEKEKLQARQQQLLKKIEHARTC
FLAG-MAX WT (P61244-2, form named): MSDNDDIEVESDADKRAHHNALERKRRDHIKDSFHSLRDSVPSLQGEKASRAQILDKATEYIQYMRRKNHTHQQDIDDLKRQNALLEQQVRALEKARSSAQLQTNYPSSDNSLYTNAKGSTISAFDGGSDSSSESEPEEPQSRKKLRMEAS

Legend:
[1] = molecular target: HA-MYCN 2D (human) (UniProt P04198); assay: co-IP
[2] = molecular target: HA-MYCN WT (human) (UniProt P04198); assay: co-IP

binding [1]: binds
binding [2]: binds
Substance: FLAG-MAX WT (from UniProt P61244-2 1-151)
